Test results published in US20250288512A1, “USE OF CELL MEMBRANE-BOUND SIGNALING FACTORS” (AIVITA Biomedical, Inc., priority 2016, published 2025).

System: hESC
Assay: Capture of lipid-modified Wnt/Shh proteins from embryonic stem cell cultures by cyclodextrin solution
Format: cell-based, human
Conditions: 10 mM cyclodextrin solution
Experimental: Embryonic stem cells were expanded according to current published methods using a serum free media supplemented with bFGF (10 ng/ml) and activin A (5 ng/ml) on an adherent substrate consisting on a thin layer of MATRIGEL®. After confluence, half of the cultures were fed with the same media not including the growth factors bFGF and Activin A. A cell culture supernatant sample was analyzed for follistatin concentration.
Individual cultures, undifferentiated or partial differentiated, were exposed to 10 mM solution of α-cyclodextrin, β-cyclodextrin, γ-cyclodextrin, or methyl-β-cyclodextrin (MBCD) for 60 min to 180 min. The cell cultures before exposure were smooth, compact, and multilayered (FIG. 5A). After incubation with a cyclodextrin, the cultures were disrupted with the majority of cells losing adherence (FIG. 5B).
The MBCD solution incubated with the cells was then analyzed for the concentration of Shh, Wnt 3a, and Wnt7a.

SMILES | Capture effect compared with methyl-β-cyclodextrin
OC[C@H]1O[C@@H]2O[C@H]3[C@H](O)[C@@H](O)[C@@H](O[C@H]4[C@H](O)[C@@H](O)[C@@H](O[C@H]5[C@H](O)[C@@H](O)[C@@H](O[C@H]6[C@H](O)[C@@H](O)[C@@H](O[C@H]7[C@H](O)[C@@H](O)[C@@H](O[C@H]8[C@H](O)[C@@H](O)[C@@H](O[C@H]1[C@H](O)[C@H]2O)O[C@@H]8CO)O[C@@H]7CO)O[C@@H]6CO)O[C@@H]5CO)O[C@@H]4CO)O[C@@H]3CO [β-cyclodextrin] | reduced but proportional effect
OC[C@H]1O[C@@H]2O[C@H]3[C@H](O)[C@@H](O)[C@@H](O[C@H]4[C@H](O)[C@@H](O)[C@@H](O[C@H]5[C@H](O)[C@@H](O)[C@@H](O[C@H]6[C@H](O)[C@@H](O)[C@@H](O[C@H]7[C@H](O)[C@@H](O)[C@@H](O[C@H]1[C@H](O)[C@H]2O)O[C@@H]7CO)O[C@@H]6CO)O[C@@H]5CO)O[C@@H]4CO)O[C@@H]3CO [α-cyclodextrin] | reduced but proportional effect
